Here are results for 3 substances from doi:10.1101/2020.11.16.384750.

By UniProt entry, the sequences of proteins in these tests, tags left out.
UniProt Q16539: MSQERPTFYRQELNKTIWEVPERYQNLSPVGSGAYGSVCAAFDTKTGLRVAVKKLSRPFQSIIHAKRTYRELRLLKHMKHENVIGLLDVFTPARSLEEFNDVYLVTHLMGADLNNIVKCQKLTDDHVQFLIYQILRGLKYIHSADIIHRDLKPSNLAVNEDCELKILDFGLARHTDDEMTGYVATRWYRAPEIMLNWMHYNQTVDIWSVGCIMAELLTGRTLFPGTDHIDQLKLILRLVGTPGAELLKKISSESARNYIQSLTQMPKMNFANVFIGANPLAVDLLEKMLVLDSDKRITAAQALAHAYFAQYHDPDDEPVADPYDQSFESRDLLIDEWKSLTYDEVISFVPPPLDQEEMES
UniProt Q9UHD2: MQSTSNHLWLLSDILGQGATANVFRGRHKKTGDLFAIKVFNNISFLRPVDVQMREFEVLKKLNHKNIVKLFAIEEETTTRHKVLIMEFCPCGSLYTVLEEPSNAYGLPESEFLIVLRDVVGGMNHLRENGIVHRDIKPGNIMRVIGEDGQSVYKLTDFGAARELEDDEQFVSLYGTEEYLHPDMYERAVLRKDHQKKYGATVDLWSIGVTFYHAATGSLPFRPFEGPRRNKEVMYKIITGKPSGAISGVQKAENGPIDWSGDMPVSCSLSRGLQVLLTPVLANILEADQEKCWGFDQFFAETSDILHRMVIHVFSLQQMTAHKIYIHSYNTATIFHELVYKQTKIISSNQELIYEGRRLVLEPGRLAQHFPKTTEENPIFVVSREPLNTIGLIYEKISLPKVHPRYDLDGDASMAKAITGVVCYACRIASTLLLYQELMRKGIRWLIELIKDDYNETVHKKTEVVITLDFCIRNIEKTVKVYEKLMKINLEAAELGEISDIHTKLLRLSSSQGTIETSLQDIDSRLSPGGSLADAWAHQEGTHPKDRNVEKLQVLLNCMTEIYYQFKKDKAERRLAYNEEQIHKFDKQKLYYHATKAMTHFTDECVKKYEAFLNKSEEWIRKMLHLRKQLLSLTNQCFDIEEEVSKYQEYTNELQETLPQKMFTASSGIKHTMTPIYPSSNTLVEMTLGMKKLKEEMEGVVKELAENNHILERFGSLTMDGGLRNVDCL
UniProt Q8IW41: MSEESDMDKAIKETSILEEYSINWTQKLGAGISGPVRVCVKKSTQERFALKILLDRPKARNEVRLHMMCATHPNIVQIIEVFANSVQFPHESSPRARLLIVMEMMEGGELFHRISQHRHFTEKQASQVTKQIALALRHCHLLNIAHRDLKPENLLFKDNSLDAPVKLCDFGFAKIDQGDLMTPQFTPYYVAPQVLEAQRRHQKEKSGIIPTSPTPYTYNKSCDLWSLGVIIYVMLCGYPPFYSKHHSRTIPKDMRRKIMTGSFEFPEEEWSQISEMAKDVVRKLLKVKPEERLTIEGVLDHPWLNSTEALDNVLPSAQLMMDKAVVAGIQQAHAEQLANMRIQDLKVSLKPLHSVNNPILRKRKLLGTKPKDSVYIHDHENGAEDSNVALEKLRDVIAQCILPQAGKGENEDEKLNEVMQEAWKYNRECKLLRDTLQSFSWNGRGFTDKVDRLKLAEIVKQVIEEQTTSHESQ
UniProt Q01167: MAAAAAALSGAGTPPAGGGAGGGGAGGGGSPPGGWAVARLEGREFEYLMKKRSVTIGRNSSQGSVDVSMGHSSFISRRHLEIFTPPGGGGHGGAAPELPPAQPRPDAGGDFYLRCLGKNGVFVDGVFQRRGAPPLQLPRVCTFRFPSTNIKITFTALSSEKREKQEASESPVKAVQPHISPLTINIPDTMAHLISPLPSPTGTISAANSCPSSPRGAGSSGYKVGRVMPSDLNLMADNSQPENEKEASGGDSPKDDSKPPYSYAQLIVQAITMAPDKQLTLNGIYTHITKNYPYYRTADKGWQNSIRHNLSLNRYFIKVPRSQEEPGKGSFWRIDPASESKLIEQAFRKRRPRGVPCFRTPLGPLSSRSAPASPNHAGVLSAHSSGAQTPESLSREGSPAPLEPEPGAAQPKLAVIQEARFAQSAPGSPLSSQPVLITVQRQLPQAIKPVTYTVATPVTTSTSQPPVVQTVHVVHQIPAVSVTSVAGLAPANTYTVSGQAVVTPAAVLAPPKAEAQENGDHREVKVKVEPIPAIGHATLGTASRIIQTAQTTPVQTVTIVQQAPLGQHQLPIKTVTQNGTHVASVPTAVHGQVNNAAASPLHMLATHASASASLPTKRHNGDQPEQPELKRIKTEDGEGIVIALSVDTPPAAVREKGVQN

These are yes or no findings as the source states them, for the method shown. Binding seen in cells or lysates may run through a third protein. A yes stands for co-enrichment or nearness to the bait. Other partners may have been found. For part of these data: Where a sequence is shown, tags or fusion partners need not be part of it.

Experiment in all cases: affinity purification with mass spectrometry
Assay [1] deals with T1, TRAF2, C-terminal His-GSG-Flag tagged bait (wild type) (UniProt Q12933).
T1 sequence: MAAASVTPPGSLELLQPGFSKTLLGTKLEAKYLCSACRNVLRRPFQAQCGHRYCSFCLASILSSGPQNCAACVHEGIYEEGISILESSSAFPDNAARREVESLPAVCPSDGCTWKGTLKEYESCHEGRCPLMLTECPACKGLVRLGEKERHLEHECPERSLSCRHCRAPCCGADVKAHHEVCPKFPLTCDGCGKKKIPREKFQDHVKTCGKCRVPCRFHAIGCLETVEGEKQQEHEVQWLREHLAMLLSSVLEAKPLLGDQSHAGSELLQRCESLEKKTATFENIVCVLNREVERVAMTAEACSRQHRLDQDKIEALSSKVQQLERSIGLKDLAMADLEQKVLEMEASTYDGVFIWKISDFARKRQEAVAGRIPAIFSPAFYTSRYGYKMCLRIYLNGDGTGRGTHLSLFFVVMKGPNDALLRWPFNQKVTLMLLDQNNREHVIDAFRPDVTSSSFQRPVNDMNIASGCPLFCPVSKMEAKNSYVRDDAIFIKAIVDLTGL

Assay [2] concerns the target MAPK14 (p38 kinase), C-terminal His-GSG-Flag tagged bait (UniProt Q16539).
Assay [3] has as its target T2, MAP3K7 (TAK1), C-terminal His-GSG-Flag tagged bait (UniProt O43318).
T2 sequence: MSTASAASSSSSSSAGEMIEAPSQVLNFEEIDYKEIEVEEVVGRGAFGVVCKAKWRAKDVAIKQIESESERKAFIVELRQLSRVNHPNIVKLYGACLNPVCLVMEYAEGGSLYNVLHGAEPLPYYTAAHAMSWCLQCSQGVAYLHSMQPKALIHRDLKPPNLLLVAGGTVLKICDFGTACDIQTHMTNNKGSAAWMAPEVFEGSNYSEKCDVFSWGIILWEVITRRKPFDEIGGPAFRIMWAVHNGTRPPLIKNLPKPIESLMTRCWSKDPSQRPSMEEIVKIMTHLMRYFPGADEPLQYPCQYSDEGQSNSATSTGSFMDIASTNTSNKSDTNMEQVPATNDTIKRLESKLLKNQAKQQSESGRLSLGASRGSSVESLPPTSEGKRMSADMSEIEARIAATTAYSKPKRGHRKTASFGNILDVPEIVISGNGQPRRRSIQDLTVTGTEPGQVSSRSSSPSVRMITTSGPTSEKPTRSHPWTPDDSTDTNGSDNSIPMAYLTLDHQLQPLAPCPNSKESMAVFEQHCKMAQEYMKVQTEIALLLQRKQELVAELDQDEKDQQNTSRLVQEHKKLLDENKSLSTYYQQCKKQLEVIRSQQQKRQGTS

Consider “serine/threonine-protein kinase TBK1 (from UniProt Q9UHD2 1-729)”, for which, in assay [1], the binding result is reported as “binds”.
As for “MAPKAPK5 (from UniProt Q8IW41 1-473) (enzyme)”, the binding result in assay [2] is listed as “binds”.
With FOXK2 (from UniProt Q01167 1-660), the binding result in assay [3] was “binds”.
